According to paper PMC11932694:
These are yes or no findings as the source states them, for the method shown. Binding seen in cells or lysates may run through a third protein. Some results given as binding are weak or reduced against the parent protein; the word gives no strength. Where a sequence is shown, tags or fusion partners need not be part of it.

Sequences of proteins named here, by UniProt entry; tags and fusion partners are left off. A change or cut given only in a name is not applied to a line headed by its entry.
UniProt Q7Z434: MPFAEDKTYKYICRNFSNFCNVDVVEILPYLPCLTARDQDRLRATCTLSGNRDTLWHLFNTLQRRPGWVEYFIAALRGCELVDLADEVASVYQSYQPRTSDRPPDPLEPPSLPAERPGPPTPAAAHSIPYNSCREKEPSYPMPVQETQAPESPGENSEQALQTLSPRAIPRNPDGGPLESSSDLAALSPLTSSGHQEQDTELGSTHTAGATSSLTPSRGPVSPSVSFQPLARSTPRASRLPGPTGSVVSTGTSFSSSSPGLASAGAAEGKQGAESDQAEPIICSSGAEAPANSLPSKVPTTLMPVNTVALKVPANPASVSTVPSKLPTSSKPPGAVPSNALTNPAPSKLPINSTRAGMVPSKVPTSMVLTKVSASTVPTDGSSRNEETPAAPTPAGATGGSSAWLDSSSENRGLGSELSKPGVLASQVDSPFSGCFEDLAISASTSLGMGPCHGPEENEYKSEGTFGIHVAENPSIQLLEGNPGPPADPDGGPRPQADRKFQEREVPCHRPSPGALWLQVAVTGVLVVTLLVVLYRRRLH

Molecular target: T1, Flag-ORMDL3 (human) (UniProt Q8N138)
T1 sequence: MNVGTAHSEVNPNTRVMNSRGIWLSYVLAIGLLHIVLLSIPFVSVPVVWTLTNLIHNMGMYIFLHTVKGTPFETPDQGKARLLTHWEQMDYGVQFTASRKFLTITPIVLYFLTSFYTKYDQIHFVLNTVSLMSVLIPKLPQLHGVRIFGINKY
Test: co-IP; HEK293T cells co-transfected with MAVS truncations and EV or Flag-ORMDL3; lysates immunoprecipitated with anti-Flag antibody, blots with anti-HA and anti-Flag

binding: binds
Substance: MAVS (HA-tagged, undeleted parent of the MAVS truncations) (from UniProt Q7Z434 1-540)
